The results in this text go back to the supplement of paper PMC11732987, “Enantioselective OTUD7B fragment discovery through chemoproteomics screening and high-throughput optimisation” (Communications Chemistry, 2025).

Protein sequences, listed by entry. Tags and fused reporters are not part of them. Lines headed by an entry give the natural chain unless they say otherwise; changes in a name come on top.
UniProt Q9P0L2: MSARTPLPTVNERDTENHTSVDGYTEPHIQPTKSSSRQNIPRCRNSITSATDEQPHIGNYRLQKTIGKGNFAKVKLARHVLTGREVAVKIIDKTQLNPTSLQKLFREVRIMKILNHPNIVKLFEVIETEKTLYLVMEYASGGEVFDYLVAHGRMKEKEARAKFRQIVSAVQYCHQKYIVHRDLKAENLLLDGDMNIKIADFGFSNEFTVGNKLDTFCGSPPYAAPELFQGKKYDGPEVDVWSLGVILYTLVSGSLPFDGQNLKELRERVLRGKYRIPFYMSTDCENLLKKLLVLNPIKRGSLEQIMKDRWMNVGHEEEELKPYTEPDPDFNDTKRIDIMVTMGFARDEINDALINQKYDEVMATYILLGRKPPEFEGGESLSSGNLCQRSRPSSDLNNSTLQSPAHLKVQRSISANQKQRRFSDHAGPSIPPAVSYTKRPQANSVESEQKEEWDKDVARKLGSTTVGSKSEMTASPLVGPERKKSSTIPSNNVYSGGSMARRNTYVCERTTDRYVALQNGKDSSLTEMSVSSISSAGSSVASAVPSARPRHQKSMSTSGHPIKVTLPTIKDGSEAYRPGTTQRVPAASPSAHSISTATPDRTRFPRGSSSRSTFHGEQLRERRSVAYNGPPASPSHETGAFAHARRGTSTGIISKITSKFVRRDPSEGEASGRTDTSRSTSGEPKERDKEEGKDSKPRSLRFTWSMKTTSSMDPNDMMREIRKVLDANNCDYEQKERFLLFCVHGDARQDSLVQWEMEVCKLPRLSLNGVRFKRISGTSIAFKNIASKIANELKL
UniProt Q96N66: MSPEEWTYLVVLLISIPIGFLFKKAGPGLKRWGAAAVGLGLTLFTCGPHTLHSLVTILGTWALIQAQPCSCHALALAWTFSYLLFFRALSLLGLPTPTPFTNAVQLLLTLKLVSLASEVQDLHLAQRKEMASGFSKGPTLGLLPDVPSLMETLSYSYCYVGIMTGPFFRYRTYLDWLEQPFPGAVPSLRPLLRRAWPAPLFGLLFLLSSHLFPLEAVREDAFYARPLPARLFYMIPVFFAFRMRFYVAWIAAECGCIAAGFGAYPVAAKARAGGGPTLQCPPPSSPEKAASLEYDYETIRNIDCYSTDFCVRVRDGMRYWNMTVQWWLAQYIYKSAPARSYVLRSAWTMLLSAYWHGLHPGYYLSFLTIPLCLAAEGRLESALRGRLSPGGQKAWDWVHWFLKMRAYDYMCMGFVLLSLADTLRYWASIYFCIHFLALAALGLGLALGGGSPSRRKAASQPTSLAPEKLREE
UniProt P49736: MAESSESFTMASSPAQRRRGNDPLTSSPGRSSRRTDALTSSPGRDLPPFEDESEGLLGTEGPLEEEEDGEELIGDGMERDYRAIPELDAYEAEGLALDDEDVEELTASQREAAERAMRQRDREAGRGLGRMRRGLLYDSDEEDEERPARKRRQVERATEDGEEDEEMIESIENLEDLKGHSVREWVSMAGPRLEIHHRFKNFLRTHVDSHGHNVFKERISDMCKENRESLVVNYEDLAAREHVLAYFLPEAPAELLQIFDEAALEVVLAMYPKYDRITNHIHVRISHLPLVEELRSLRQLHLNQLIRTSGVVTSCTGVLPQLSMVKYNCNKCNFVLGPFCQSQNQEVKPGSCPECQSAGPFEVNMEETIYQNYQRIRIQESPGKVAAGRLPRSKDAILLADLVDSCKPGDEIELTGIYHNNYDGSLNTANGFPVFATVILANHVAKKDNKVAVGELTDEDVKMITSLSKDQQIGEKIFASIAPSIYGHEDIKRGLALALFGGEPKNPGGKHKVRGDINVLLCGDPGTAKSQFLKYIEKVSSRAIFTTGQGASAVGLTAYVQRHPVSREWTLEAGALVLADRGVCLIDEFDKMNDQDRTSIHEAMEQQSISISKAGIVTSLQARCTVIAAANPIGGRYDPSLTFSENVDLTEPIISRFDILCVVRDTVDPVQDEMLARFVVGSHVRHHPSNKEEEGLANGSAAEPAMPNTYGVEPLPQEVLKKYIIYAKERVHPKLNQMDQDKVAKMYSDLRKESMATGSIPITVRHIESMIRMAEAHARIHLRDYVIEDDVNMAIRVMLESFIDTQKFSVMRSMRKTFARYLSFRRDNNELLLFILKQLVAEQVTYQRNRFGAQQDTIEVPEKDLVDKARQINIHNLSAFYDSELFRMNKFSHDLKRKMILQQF

Compound in test [1]: ClCC(=O)N[C@@H]1CCCc2ccccc12
The test can be described thus: log2 mean competition ratio of IA-DTB cysteine labelling (DMSO/compound) (log2 ratio); higher = stronger cysteine engagement by compound. The note with it: treatment time: 4 h, cell line lysate: HEK293T. On the procedure:
(§1)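 IA-DTB competitive cysteine chemoproteomics in HEK293T RIPA lysate. Lysates were treated with compound 29 or 30 at 50 or 200 µM for 4 h, then IA-DTB (500 µM, 1 h), trypsin-digested, NeutrAvidin-enriched and analysed by diaPASEF. Competition ratio = intensity DMSO / intensity compound (n=4 treated, n=64 DMSO); binding: mean log2 CR ≥ 1 and p ≤ 0.05 plus QC filters. Target is the cysteine site.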

Compound in test [2]: ClCC(=O)N[C@H]1CCCc2ccccc12
The test is described as above. The note with it: treatment time: 4 h, cell line lysate: HEK293T. The procedure: as §1

The other results are listed elsewhere or left out. The data scatter; read single values as rough.

Turning to MARK1 C507 (UniProt Q9P0L2), the “log2 mean competition ratio” value in test [1] (50 µM) is -0.16; in test [1] (200 µM), -0.107; in test [2] (50 µM) it was -0.476; in test [2] (200 µM), 0.0899.

Take MBOAT7 C280 (UniProt Q96N66): the “log2 mean competition ratio” value is -0.0596 in test [1] (50 µM), -0.247 in test [1] (200 µM), 0.254 in test [2] (50 µM) and -0.267 in test [2] (200 µM).

Turning to MCM2 C624 (UniProt P49736), the “log2 mean competition ratio” value in test [1] (50 µM) is 0.385; in test [1] (200 µM), -0.336; in test [2] (50 µM) it was 0.435; in test [2] (200 µM) it was -0.307.
